Results on one molecule are retold here after paper doi:10.1101/2025.05.26.656197.

Amino acid sequences for entries named in this document (tags omitted).
UniProt Q8BK63: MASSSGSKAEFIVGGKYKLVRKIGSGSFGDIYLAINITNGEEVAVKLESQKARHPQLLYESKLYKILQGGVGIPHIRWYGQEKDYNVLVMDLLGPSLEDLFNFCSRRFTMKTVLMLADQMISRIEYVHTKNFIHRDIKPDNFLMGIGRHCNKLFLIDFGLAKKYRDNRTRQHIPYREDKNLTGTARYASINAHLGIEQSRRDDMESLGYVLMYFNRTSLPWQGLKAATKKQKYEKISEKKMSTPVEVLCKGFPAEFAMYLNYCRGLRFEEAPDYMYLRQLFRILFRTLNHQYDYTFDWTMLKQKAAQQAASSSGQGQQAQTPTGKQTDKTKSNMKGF

The experiment concerns the target casein kinase 1 alpha (CK1α), mouse (mouse (endogenous in ileum of C57BL/6 mice)) (UniProt Q8BK63). Put plainly: affinity purification with mass spectrometry.

No constants are given. Whether binding was seen depends on the method and setting. In cells and extracts the contact can be indirect. These calls come from enrichment with a bait or labelling near it, and not all partners need be listed.

B1: Family with Sequence Similarity 83 Member H (FAM83H), wild type, mouse (protein, UniProt Q148V8 1-1209)
chain: MARRSQSSSQGDNPLAPGYLPPHYKEYYRLAVDALTEGGPEAYNRFLASEGAPDFLCPEELEHVSRHLQPPQYVAREPPEGTPSDVDMDGSSGTYWPVNSDQAVPELDLGWPLTFGFQGTEVTTLVQPPPPDSPSIKDEARRMIRSAQQVVAVVMDMFTDVDLLSEVLEAAARRVPVYILLDEMNAQHFLDMADKCRVNLHHVDFLRVRTVAGPTYYCRTGKSFKGHLKEKFLLVDCAVVMSGSYSFMWSFEKIHRSLAHVFQGELVSSFDEEFRILFAQSEPLVPSAGALARMDAYALAPYSGAGPLVGVPGVGAPTPFSFPKRAHLLFPPPREEGLGFPSFLDPDRHFLSAFRREELQRMPGGALEPHTGLRPLARPTEAGPFGELAGPRGFFQSRHLEMDAFKRHSYATPDGAGAVENFAAARQVSRQTFLSHGDDFRFQTSHFQRDQLYQQHYQWDPQFAPARPQGLFEKLRAGRPGFADPDDFALGAGHRFPELGADVHQRLEYVPSSASREVRHGSDPAFGPSPRGLEPSGASRPNLGQRFPCQATLRQGLDTASEAEPERRGGPEGRAGLRHWRLASYLSGCHGDGGEEGLPMEAEACEDEVLAPGGRDLLPSAFRTPAAFPAKGPKPGSGSGGGDSSEREGPEETSLAKQDSFRSRLNPLIQRSSRLRSSLIFASQAEGAVGTAAATTEKVQLMHKEQTVSETLGPSGEAVRSSASAKVAELLEKYKGPARDPGGAGGAVTSSSHSKAVVSQAWREEVVAPGGAGTERRSLESCLLDLRDSFAQQLHQEAERHPGAASLTAAQLLDTLGGTDRLPSRFLSAQGRSLSPQGRDSPPPEGLGTHQLPYSEPKGNPTPAYPERKGSPTPAYPERKGSPTPAYPERKGSPTPAYPERKGSPTQAYPERKGSPTSGFPNRRGSPTTGLMEQKGSPTSTYPDRRGSPVPPVPERRGSPVPPVPERRGSLTFAGESSKTGPTEEVSSGPMEVLRKGSLRLRQLLSPKNERRGEDEGSFPTPQENGQPESPRRPSLSRGDSTEAAAEERGSRVRLASATANALYSSNLRDDTKAILEQISAHGQKHRGVPAPGPAHSSPDVGRPTTAGDLAPDMSDKDKCSAIFRSDSLGTQGRLSRTLPGSAEERDRLLRRMESMRKEKRVYSRFEVFCKKDEAGSSGAGDNLADEDTRDSKMGKFVPKILGTFKSKK
Regarding B1, the binding result is on record as “binds”.
